# Results as given in publication PMC10858049.
# Protein sequences, listed by entry. Tags and fused reporters are not part of them.
# UniProt Q9CAR4: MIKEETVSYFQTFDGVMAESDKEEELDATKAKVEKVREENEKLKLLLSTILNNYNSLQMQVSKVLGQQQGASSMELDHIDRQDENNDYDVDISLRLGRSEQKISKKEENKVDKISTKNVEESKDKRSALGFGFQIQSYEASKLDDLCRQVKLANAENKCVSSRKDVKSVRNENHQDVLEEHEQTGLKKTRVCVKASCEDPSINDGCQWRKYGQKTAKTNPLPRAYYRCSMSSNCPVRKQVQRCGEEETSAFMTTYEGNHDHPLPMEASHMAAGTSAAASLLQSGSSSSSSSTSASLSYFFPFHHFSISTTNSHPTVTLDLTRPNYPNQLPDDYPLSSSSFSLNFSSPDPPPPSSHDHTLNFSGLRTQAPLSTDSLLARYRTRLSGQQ
# Read-outs that look alike come from different tables or passages of the source. Results are given in words; binding and its absence hold for the method and conditions named. Binding seen in cells or lysates may run through a third protein. Some binding calls cover weakened binding; strength is not graded here. Tags and fused reporters may be left off the sequences shown.
# T1: GFP-UVR8^S402D, transiently expressed in Nicotiana benthamiana leaves (Arabidopsis) (UniProt Q9FN03)
# T1 sequence: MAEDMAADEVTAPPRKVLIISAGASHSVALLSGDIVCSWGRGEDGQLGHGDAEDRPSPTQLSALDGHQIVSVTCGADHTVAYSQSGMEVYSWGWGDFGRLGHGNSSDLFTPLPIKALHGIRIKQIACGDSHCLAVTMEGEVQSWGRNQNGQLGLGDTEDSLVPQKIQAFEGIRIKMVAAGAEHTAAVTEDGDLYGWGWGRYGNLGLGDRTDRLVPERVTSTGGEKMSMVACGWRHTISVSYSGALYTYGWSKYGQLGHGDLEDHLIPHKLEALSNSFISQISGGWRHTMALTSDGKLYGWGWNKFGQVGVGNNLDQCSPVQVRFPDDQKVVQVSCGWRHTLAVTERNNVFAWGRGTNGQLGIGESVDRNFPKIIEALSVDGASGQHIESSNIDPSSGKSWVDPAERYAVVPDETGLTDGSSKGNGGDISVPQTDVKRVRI
# T2: GFP-UVR8, transiently expressed in Nicotiana benthamiana leaves (Arabidopsis) (UniProt Q9FN03)
# T2 sequence: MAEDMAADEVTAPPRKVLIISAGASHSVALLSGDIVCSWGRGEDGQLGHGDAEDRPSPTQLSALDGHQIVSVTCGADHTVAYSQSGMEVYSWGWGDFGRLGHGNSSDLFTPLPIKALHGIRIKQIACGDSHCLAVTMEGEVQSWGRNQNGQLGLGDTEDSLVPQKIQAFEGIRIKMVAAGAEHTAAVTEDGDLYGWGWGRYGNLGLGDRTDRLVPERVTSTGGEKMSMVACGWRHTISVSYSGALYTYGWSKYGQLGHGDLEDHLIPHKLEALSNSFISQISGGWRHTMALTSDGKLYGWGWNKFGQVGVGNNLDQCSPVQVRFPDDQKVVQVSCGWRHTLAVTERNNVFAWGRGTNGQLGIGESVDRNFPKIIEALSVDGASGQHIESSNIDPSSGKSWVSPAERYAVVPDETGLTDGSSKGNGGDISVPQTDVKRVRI
# T3: GFP-UVR8^S402A, transiently expressed in Nicotiana benthamiana leaves (Arabidopsis) (UniProt Q9FN03)
# T3 sequence: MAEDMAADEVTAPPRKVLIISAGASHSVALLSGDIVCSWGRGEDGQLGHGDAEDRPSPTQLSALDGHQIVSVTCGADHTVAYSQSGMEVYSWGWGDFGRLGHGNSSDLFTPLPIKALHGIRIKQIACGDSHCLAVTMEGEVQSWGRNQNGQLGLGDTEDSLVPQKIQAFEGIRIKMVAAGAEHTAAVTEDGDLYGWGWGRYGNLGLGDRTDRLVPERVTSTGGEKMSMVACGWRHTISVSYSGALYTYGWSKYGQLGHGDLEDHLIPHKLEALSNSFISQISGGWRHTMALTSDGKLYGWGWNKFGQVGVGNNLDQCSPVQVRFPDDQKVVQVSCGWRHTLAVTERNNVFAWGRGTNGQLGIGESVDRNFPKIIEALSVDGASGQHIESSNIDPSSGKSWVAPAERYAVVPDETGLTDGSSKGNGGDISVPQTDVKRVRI
# T4: GFP-UVR8^S402D, expressed in HEK293T cells (Arabidopsis) (UniProt Q9FN03)
# T4 sequence: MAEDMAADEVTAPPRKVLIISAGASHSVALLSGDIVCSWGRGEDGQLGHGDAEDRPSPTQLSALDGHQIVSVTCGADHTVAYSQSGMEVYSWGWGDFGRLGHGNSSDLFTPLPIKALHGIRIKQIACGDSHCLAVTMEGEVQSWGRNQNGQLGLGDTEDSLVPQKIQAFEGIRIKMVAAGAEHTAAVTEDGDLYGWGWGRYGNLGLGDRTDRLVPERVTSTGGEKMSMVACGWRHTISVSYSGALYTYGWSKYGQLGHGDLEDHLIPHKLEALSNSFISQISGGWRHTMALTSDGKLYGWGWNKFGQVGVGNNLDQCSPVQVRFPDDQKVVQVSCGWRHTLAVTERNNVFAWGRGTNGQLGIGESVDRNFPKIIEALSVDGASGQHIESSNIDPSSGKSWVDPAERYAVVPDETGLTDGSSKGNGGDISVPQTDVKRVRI
# T5: GFP-UVR8 (UV … LOCUS 8 fused to GFP), expressed in Arabidopsis uvr8-1 plants (Arabidopsis), Q9FN03
# T5 chain: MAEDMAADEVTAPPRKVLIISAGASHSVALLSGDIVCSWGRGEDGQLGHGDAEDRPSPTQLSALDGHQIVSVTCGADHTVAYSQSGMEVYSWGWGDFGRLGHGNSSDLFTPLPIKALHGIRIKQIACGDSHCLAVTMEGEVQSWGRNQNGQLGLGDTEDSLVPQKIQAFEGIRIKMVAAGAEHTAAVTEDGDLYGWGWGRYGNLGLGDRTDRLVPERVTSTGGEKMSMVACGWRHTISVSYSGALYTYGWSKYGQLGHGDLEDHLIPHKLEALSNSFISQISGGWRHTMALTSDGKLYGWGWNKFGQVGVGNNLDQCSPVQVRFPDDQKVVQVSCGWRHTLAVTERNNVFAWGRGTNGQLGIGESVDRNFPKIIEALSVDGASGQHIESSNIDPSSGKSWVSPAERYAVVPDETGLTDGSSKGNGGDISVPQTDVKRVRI
# T6: GFP-UVR8^S402A, expressed in Arabidopsis uvr8-1 plants (Arabidopsis) (UniProt Q9FN03)
# T6 sequence: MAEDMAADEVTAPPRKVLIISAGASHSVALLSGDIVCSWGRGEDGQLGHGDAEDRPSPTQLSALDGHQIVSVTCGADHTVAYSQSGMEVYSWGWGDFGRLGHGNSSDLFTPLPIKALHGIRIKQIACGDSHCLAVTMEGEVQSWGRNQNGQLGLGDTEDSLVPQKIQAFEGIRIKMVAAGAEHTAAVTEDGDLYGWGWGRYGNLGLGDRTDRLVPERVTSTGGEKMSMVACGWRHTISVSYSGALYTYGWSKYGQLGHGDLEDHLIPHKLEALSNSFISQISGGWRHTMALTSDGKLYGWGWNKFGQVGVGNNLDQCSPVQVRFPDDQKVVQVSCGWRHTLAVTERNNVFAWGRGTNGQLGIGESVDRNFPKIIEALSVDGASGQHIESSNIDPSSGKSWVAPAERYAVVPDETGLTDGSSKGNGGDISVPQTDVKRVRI
# T7: GFP-UVR8 (UV … LOCUS 8 fused to GFP), expressed in Arabidopsis uvr8-1 plants (Arabidopsis) (UniProt Q9FN03)
# T7 sequence: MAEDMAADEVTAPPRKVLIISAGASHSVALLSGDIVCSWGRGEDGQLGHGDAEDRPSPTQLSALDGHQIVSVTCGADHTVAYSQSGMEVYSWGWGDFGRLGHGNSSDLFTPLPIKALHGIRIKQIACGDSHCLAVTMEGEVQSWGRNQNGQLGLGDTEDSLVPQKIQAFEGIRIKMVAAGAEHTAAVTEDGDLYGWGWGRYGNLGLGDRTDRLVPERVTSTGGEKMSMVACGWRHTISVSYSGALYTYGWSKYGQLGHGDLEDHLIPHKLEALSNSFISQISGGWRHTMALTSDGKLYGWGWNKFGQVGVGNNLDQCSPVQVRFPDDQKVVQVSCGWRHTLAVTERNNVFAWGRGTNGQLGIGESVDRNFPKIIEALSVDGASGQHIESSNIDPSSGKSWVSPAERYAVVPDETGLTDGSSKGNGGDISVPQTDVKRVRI
# T8: GFP-UVR8^S402D, expressed in Arabidopsis uvr8-1 plants (Arabidopsis) (UniProt Q9FN03)
# T8 sequence: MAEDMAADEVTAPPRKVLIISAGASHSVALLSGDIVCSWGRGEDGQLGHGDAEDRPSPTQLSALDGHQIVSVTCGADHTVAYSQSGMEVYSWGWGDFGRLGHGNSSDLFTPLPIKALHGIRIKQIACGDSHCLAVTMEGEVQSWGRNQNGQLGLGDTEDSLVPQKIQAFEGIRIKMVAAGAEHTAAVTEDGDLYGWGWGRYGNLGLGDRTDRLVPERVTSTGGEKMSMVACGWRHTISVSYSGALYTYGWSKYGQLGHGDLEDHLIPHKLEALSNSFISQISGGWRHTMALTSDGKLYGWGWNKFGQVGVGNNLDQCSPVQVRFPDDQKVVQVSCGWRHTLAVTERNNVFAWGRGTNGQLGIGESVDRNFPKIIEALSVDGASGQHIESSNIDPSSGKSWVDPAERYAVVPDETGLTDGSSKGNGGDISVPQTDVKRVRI
# What was measured:
# [1] = target: T1, GFP-UVR8^S402D, transiently expressed in Nicotiana benthamiana leaves (Arabidopsis); assay: co-IP; proteins transiently co-expressed in N. benthamiana leaves; with or without supplementary UV-B for 3 h; GFP-UVR8 forms immunoprecipitated, partners detected by western blot
# [2] = target: T2, GFP-UVR8, transiently expressed in Nicotiana benthamiana leaves (Arabidopsis); assay: as above
# [3] = target: T3, GFP-UVR8^S402A, transiently expressed in Nicotiana benthamiana leaves (Arabidopsis); assay: as above
# [4] = target: T1, GFP-UVR8^S402D, transiently expressed in Nicotiana benthamiana leaves (Arabidopsis); assay: as above; remark: listed apart in the source
# [5] = target: T4, GFP-UVR8^S402D, expressed in HEK293T cells (Arabidopsis); assay: co-IP; HEK293T cells co-transfected with a GFP-UVR8 fusion and a HA-RUP/COP1 fusion; exposed or not to 0.1 µmol m^-2 s^-1 UV-B for 4 h; lysate (150 mM NaCl, 1% Triton X-100, 50 mM Tris HCl pH 8.0) incubated with GFP-Trap beads at 4 °C for 30 min
# [6] = target: T5, GFP-UVR8 (UV … LOCUS 8 fused to GFP), …; assay: co-IP; GFP-Trap immunoprecipitation of GFP-UVR8 forms from protein extracts of 14-day old uvr8-1 transgenic Arabidopsis plants; white light, with or without supplementary 3.0 µmol m^-2 s^-1 UV-B; co-precipitated endogenous COP1, RUP1 and RUP2 detected by western blot; conditions: remark: other sources report otherwise
# [7] = target: T6, GFP-UVR8^S402A, expressed in Arabidopsis uvr8-1 plants (Arabidopsis); assay: as above
# [8] = target: T7, GFP-UVR8 (UV … LOCUS 8 fused to GFP), expressed in Arabidopsis uvr8-1 plants (Arabidopsis); assay: as above
# [9] = target: T8, GFP-UVR8^S402D, expressed in Arabidopsis uvr8-1 plants (Arabidopsis); assay: as above
molecule,measurement,setting,value
"GST-WRKY36 (WRKY DNA-BINDING PROTEIN 36 fused to GST), transiently expressed in Nicotiana benthamiana leaves (from UniProt Q9CAR4 1-387)",binding,[1],binds
same,binding,[2],binds
same,binding,[3],binds
"RUP2, transiently expressed in Nicotiana benthamiana leaves (protein, UniProt Q9FFA7 1-368) MNTLHPHKQQQEQAQQQEEARYEWDLSLSTVVSSSSSSASDVIGAIEFDPTDNIVATAGISRKIRFYGLPSLLRNNAVSGTGVSFVDQATACEYYICTPAKLSSLRWRPGSGGRVIGSGDYDGVVMEYDLEKRTPVFERDEHGGRRVWSVDYTRHGGASTVGASGSDDGTMQVWDPRCPPEESVGVVRPAGICRSAVCCVEFDPSGGPAVAVGCADRKGYVYDIRKLVDPALTLQGHTKTVSYVRFLDGGTVVTAGTDGCLKLWSVEDGRVIRTYEGHVNNRNFVGLSVWRNGALFGCGSENNRVFVYDRRWGKPVWVDGFEPVGMNSGSDKRFVSSVCWRQSGVDQCTLVAGGSDGVLQVYVGKRKP",binding,[4],binds
"HA-RUP2, expressed in HEK293T cells (protein, UniProt Q9FFA7 1-368) MNTLHPHKQQQEQAQQQEEARYEWDLSLSTVVSSSSSSASDVIGAIEFDPTDNIVATAGISRKIRFYGLPSLLRNNAVSGTGVSFVDQATACEYYICTPAKLSSLRWRPGSGGRVIGSGDYDGVVMEYDLEKRTPVFERDEHGGRRVWSVDYTRHGGASTVGASGSDDGTMQVWDPRCPPEESVGVVRPAGICRSAVCCVEFDPSGGPAVAVGCADRKGYVYDIRKLVDPALTLQGHTKTVSYVRFLDGGTVVTAGTDGCLKLWSVEDGRVIRTYEGHVNNRNFVGLSVWRNGALFGCGSENNRVFVYDRRWGKPVWVDGFEPVGMNSGSDKRFVSSVCWRQSGVDQCTLVAGGSDGVLQVYVGKRKP",binding,[5],binds
"REPRESSOR OF UV-B PHOTOMORPHOGENESIS 1 (RUP1), endogenous in Arabidopsis plants, Q9LTJ6 1-385 (protein) MEALFCSEIPNNNIRSSINDLSSSSSYTWPMIMTSSSSSSSSPTIMNIENIPRCDWDLSLSAVVSSASTGSDAIGAIEFDPTGEIIATGGIARKIRSYRLSSLLESRDDHVTASESYICTPAKLSSLKWRPDFSGRVIGSGDYDGVVTEYDVEKQVPVSERDEHGGRRIWSVDYTLYNGSLIGASGSDDGTVQMWDPRNGGTLEETVRPGGGAAICSVEFDPFGGSSIAVGCADRNAYVYDIRRLVDPLIVLDGHTKTVTYARFMDSHTIVTGSTDGSLKQWDIDNGRRVVRTYRGHVNSRNFVGLSVWRHGGLVVSGSENNQVFVYDKRWEEPVWVCGLGHTNRFGSDRRFVSSVCLRQVDEDWCTLVAGGSDGALEIFSGKQS",binding,[6],binds
"REPRESSOR OF UV-B PHOTOMORPHOGENESIS 2 (RUP2), endogenous in Arabidopsis plants (protein, UniProt Q9FFA7 1-368) MNTLHPHKQQQEQAQQQEEARYEWDLSLSTVVSSSSSSASDVIGAIEFDPTDNIVATAGISRKIRFYGLPSLLRNNAVSGTGVSFVDQATACEYYICTPAKLSSLRWRPGSGGRVIGSGDYDGVVMEYDLEKRTPVFERDEHGGRRVWSVDYTRHGGASTVGASGSDDGTMQVWDPRCPPEESVGVVRPAGICRSAVCCVEFDPSGGPAVAVGCADRKGYVYDIRKLVDPALTLQGHTKTVSYVRFLDGGTVVTAGTDGCLKLWSVEDGRVIRTYEGHVNNRNFVGLSVWRNGALFGCGSENNRVFVYDRRWGKPVWVDGFEPVGMNSGSDKRFVSSVCWRQSGVDQCTLVAGGSDGVLQVYVGKRKP",binding,[7],binds
same,binding,[8],binds
same,binding,[9],binds
"REPRESSOR OF UV-B PHOTOMORPHOGENESIS 1 (RUP1), endogenous in Arabidopsis plants (protein, UniProt Q9LTJ6 1-385) MEALFCSEIPNNNIRSSINDLSSSSSYTWPMIMTSSSSSSSSPTIMNIENIPRCDWDLSLSAVVSSASTGSDAIGAIEFDPTGEIIATGGIARKIRSYRLSSLLESRDDHVTASESYICTPAKLSSLKWRPDFSGRVIGSGDYDGVVTEYDVEKQVPVSERDEHGGRRIWSVDYTLYNGSLIGASGSDDGTVQMWDPRNGGTLEETVRPGGGAAICSVEFDPFGGSSIAVGCADRNAYVYDIRRLVDPLIVLDGHTKTVTYARFMDSHTIVTGSTDGSLKQWDIDNGRRVVRTYRGHVNSRNFVGLSVWRHGGLVVSGSENNQVFVYDKRWEEPVWVCGLGHTNRFGSDRRFVSSVCLRQVDEDWCTLVAGGSDGALEIFSGKQS",binding,[7],binds
same,binding,[9],binds
